# The supplement of paper PMC7411640
# Where a name gives a salt, the structure may show the parent alone. Some of the results follow. Most values lie within the scatter of the assay; repeated measurements hardly agree.
# Test system: MDA-MB-468
# Experiment: phospho-S6 immunofluorescence (DAPI-normalised), per-plate z-score; higher = higher phospho-S6 signal (less pathway suppression)
# Conditions: 24 h
# Experimental: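 GPCR-targeted compound library (MedChemExpress HY-L006) tested on MDA-MB-468 PTEN-null TNBC cells in 384-well plates at 0.1, 1 or 10 uM, combined with vehicle, GDC0941 450 nM or lapatinib 1 uM, for 24 h. Phospho-S6 (S240/244) immunofluorescence normalised to DAPI and expressed as a per-plate z-score; values are the mean of biological triplicates.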
# [1] = compound 0.1 µM, co-treatment: GDC0941 450 nM
# [2] = compound 0.1 µM, co-treatment: lapatinib 1 uM
# [3] = compound 0.1 µM, co-treatment: vehicle
# [4] = compound 1 µM, co-treatment: GDC0941 450 nM
# [5] = compound 1 µM, co-treatment: lapatinib 1 uM
# [6] = compound 1 µM, co-treatment: vehicle
# [7] = compound 10 µM, co-treatment: GDC0941 450 nM
# [8] = compound 10 µM, co-treatment: lapatinib 1 uM
# [9] = compound 10 µM, co-treatment: vehicle
Structure (SMILES),phospho-S6 immunofluorescence (z-score) [1],phospho-S6 immunofluorescence (z-score) [2],phospho-S6 immunofluorescence (z-score) [3],phospho-S6 immunofluorescence (z-score) [4],phospho-S6 immunofluorescence (z-score) [5],phospho-S6 immunofluorescence (z-score) [6],phospho-S6 immunofluorescence (z-score) [7],phospho-S6 immunofluorescence (z-score) [8],phospho-S6 immunofluorescence (z-score) [9]
CCCC(C)(C)c1ccc2c(c1)OC(C)(C)[C@@H]1CC=C(C)C[C@@H]21,-0.31,-0.71,0.03,-0.01,1.56,0.26,–,–,–
NCCc1cc(O)c(O)cc1O [Oxidopamine (hydrobromide)],-1.04,-1.54,-0.51,-0.95,0.5,-0.1,0.33,2.77,2.94
CO[C@]12C[C@@H](COC(=O)c3cncc(Br)c3)CN(C)[C@@H]1Cc1cn(C)c3cccc2c13 [Nicergoline],0.67,0.84,-0.63,-0.3,-0.51,0.13,0.57,-0.56,-0.38
CN1[C@@H]2CC(O)C[C@H]1[C@@H]1O[C@@H]12 (stereo partly specified) [Scopine (hydrochloride)],0.8,-0.38,-1.21,0.29,0.76,-0.32,–,–,–
O=C(C[S+]([O-])C(c1ccccc1)c1ccccc1)NO (stereo unspecified) [Adrafinil],1.05,-0.22,-1,-0.36,0,-0.91,-0.02,0.28,-0.05
CCC1(c2cccc(O)c2)CCCCN(C)C1 (stereo unspecified) [Meptazinol (hydrochloride)],-0.49,-0.54,-0.64,0.55,-0.03,0.4,–,–,–
CN1C(=O)COc2c(C(=O)NC3CN4CCC3CC4)cc(Cl)cc21 (stereo unspecified) [Azasetron (hydrochloride)],1.62,0.19,1.24,3.1,-0.19,0.93,–,–,–
CNCC(=O)c1ccc(O)c(O)c1 [Adrenalone (hydrochloride)],0.29,-0.35,-0.04,-0.45,-0.22,-0.27,–,–,–
CN1[C@@H]2C[C@@H](OC(=O)[C@H](CO)c3ccccc3)C[C@H]1[C@@H]1O[C@@H]12 [Scopolamine (hydrobromide)],-1.08,0.44,-0.41,-0.69,-0.65,-0.22,–,–,–
Cc1cccc(C(C)c2c[nH]cn2)c1C (stereo unspecified) [Medetomidine (hydrochloride)],-0.2,0.17,1.23,-0.54,-0.64,0.35,–,–,–
Cc1cccc([C@H](C)c2c[nH]cn2)c1C [Dexmedetomidine (hydrochloride)],0.67,0.96,1.08,0.15,0.07,1.37,–,–,–
CN1[C@@H]2CC[C@H]1C[C@@H](OC(=O)[C@H](CO)c1ccccc1)C2 [L-Hyoscyamine],0.63,-0.01,0.31,0.69,0.51,1.57,–,–,–
Cc1ccc2c(c1)[C@]13CCCC[C@@H]1[C@H](C2)N(C)CC3 [Dimemorfan (phosphate)],-0.77,-1.05,-0.38,-0.83,-0.03,-0.39,0.3,0.09,0.76
Cc1cccc(Cc2c[nH]cn2)c1C [Detomidine (hydrochloride)],-0.14,0.63,-0.57,-0.56,-0.12,-1.53,–,–,–
COC(=O)C1=CCCN(C)C1 [Arecoline (hydrobromide)],1.07,0.75,0.13,1.23,-0.42,0.28,0.22,0.44,0.56
Cc1ccc2c(c1)C1(CCN(CCc3nc(-c4ccccc4)oc3C)CC1)OC(=O)N2,0.88,1.37,0.79,0.69,0.28,0.46,–,–,–
C[N+]1(C)[C@@H]2C[C@@H](OC(=O)[C@H](CO)c3ccccc3)C[C@H]1[C@@H]1O[C@@H]12 [Methscopolamine (bromide)],0.15,0.2,1.67,1.29,0.61,0.46,0.05,0.43,0.6
Oc1ccc2c3c1O[C@H]1c4[nH]c5ccccc5c4C[C@@]4(O)[C@@H](C2)N(CC2CC2)CC[C@]314 [Naltrindole (hydrochloride)],0.1,-0.21,-1.78,0.4,-0.82,-1.22,–,–,–
CNC(C)Cc1ccccc1OC (stereo unspecified) [Methoxyphenamine (Hydrochloride)],0.36,0.58,1.68,1.32,0.42,1.17,0.57,-0.2,0.23
CN(C)CCN(C)CCc1ccc(Cl)c(Cl)c1 [BD-1047 (dihydrobromide)],0.08,0.57,-1.08,-1.06,0.68,-0.26,0.39,-1.41,-0.85
O=C1Nc2ccccc2C2(CCN(CCc3ccc(C(F)(F)F)cc3)CC2)O1,0.88,1.02,-0.13,0.65,-0.99,0.7,–,–,–
C[N@+]1(CC2CC2)CC[C@]23c4c5ccc(O)c4O[C@H]2C(=O)CC[C@@]3(O)[C@H]1C5 [Methylnaltrexone (Bromide)],-0.74,-0.38,-1.12,-0.46,-0.7,-1.11,0.46,0.44,-0.66
O=Cc1cn(Cc2ccc(Cl)cc2)c2ccccc12 [Oncrasin-1],-2.31,-2.02,-5.54,-2.65,-11.2,-12.5,–,–,–
CCC(COC(=O)c1cc(OC)c(OC)c(OC)c1)(c1ccccc1)N(C)C (stereo unspecified) [Trimebutine (maleate)],-0.72,-0.41,-0.04,0.24,-0.53,0.57,1.12,1.5,0.51
O=C(O[C@H]1C[C@H]2CC[C@@H](C1)[N+]21CCCC1)C(O)(c1ccccc1)c1ccccc1 [Trospium (chloride)],-0.07,-0.25,-1.08,-1.5,-0.28,-2.21,-0.76,0.26,-1.07
CN1CCC2=C(C1)c1ccccc1Cc1ccccc12 [Setiptiline],0.79,-0.04,-0.22,0.13,-0.52,0.16,-0.28,-1.52,-0.24
CN1CCC(C(=O)c2cccc(NC(=O)c3c(F)cc(F)cc3F)n2)CC1 [Lasmiditan (hydrochloride)],-0.63,1.08,0.99,-1.02,-0.44,-0.86,-2.08,-3.95,-0.09

# In a second layout: 7 of the compounds above.
Structure (SMILES)	phospho-S6 immunofluorescence (z-score) [1]	phospho-S6 immunofluorescence (z-score) [2]	phospho-S6 immunofluorescence (z-score) [3]	phospho-S6 immunofluorescence (z-score) [4]	phospho-S6 immunofluorescence (z-score) [5]	phospho-S6 immunofluorescence (z-score) [6]	phospho-S6 immunofluorescence (z-score) [7]	phospho-S6 immunofluorescence (z-score) [8]	phospho-S6 immunofluorescence (z-score) [9]
CCCC(C)(C)c1ccc2c(c1)OC(C)(C)[C@@H]1CC=C(C)C[C@@H]21	-0.31	-0.71	0.03	-0.01	1.56	0.26	–	–	–
C[N+]1(C)[C@@H]2C[C@@H](OC(=O)[C@H](CO)c3ccccc3)C[C@H]1[C@@H]1O[C@@H]12 [Methscopolamine (bromide)]	0.15	0.2	1.67	1.29	0.61	0.46	0.05	0.43	0.6
CNC(C)Cc1ccccc1OC (stereo unspecified) [Methoxyphenamine (Hydrochloride)]	0.36	0.58	1.68	1.32	0.42	1.17	0.57	-0.2	0.23
CN(C)CCN(C)CCc1ccc(Cl)c(Cl)c1 [BD-1047 (dihydrobromide)]	0.08	0.57	-1.08	-1.06	0.68	-0.26	0.39	-1.41	-0.85
CCC(COC(=O)c1cc(OC)c(OC)c(OC)c1)(c1ccccc1)N(C)C (stereo unspecified) [Trimebutine (maleate)]	-0.72	-0.41	-0.04	0.24	-0.53	0.57	1.12	1.5	0.51
O=C(O[C@H]1C[C@H]2CC[C@@H](C1)[N+]21CCCC1)C(O)(c1ccccc1)c1ccccc1 [Trospium (chloride)]	-0.07	-0.25	-1.08	-1.5	-0.28	-2.21	-0.76	0.26	-1.07
CN1CCC2=C(C1)c1ccccc1Cc1ccccc12 [Setiptiline]	0.79	-0.04	-0.22	0.13	-0.52	0.16	-0.28	-1.52	-0.24
